PubChem BioAssay AID504784, Drosophila RNAi Screening Center, 2011

Assay: 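Search for regulators of lipid droplet storage in oleate-fed fly cells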 (primary screen)
Cells: Drosophila Kc167 embryonic cells
Knock-down reagent: long dsRNA against Drosophila genes, about 250 ng dsRNA per well
Timing: 4 days
Conditions: cells fed 400 µM oleic acid bound to BSA
Read-out: 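Cells imaged and segmented; ratio of lipid droplet area to nuclear area, log-transformed, then normalised as a B-score over the screen; higher means more stored lipid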
Direction: droplet/nuclear area B-score: higher = more stored lipid (overstorage)
The deposit covers about 17,000 reagents; this is an unselected part of those that have a named target and a result. 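Each column is one replicate's B-score; the combined score over replicates was not deposited, so single values may mislead.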 A plus sign joins genes that one reagent is predicted to hit. Further read-outs or replicates are left out here.

Gene | dsRNA | droplet/nuclear area B-score, replicate 1
CG12835 (retired record) | DRSC06181 | 0.314
CG5726 | DRSC06946 | -0.0314
PheRS-m | DRSC05915 | 0.849
p38c | DRSC22939 | 1.28
viaf | DRSC10326 | 1.22
Rpt6R | DRSC15431 | -1.28
S-Lap4 | DRSC10957 | -0.104
CG12885 | DRSC14572 | -0.351
Odj | DRSC16234 | 1.03
NtR | DRSC04628 | -0.0274
wech | DRSC06606 | 0.591
lectin-21Cb | DRSC00355 | -0.232
CG2260 | DRSC18223 | -0.257
Rab3-GAP | DRSC02001 | -1.26
toe | DRSC09174 | -0.0382
toe | DRSC09783 | 2.06
Nrk | DRSC07480 | -0.497
CG32204 | DRSC09574 | -0.426
CG12842 (retired record) | DRSC06188 | 0.0138
CYLD | DRSC02870 | -0.283
CG33462 | DRSC22902 | -3.32
tinc | DRSC14798 | 1.45
tinc | DRSC14799 | 0.0242
tinc | DRSC16308 | 0.525
tinc | DRSC16309 | -0.0515
elav | DRSC18772 | -0.223
Stat92E | DRSC16870 | -0.387
CG12159 | DRSC06114 | 1.22
CG42249 | DRSC19383 | -0.368
CG42249 | DRSC19826 | 0.909
CG12744 | DRSC06164 | 0.563
Nepl10 | DRSC07212 | 1
CG5783 | DRSC02894 | -1.56
SmydA-8 | DRSC18797 | 0.444
SmydA-8 | DRSC22064 | -0.348
SmydA-8 | DRSC22263 | 0.0921
Lipt1 | DRSC07183 | 0.295
Prosalpha1R + Prosalpha1 | DRSC07515 | -1.61
CG9360 | DRSC20180 | -0.469
RhoGEF64C | DRSC08318 | 1.29
RhoGEF64C | DRSC08319 | 2.39
CG10435 | DRSC14246 | -1.66
Parp1 | DRSC07725 | 0.723
Parp1 | DRSC07778 | 1.14
Parp1 | DRSC07780 | 0.445
sicily | DRSC19704 | 1.53
Octbeta1R | DRSC16134 | 0.0359
Naa60 | DRSC10301 | 1.55
RpS5a | DRSC20282 | 2.42
ALiX | DRSC14564 | 0.534
CG13473 | DRSC10017 | 2.95
Ldh | DRSC11198 | 0.981
CG7080 | DRSC16193 | 0.606
crb | DRSC16927 | 1.91
CG10680 | DRSC02093 | 2.17
CG2909 | DRSC18241 | -2.66

Not a retest: 9 of the entries above.
Gene | dsRNA | droplet/nuclear area B-score, replicate 1
tinc | DRSC14799 | 0.0242
tinc | DRSC16308 | 0.525
tinc | DRSC16309 | -0.0515
elav | DRSC18772 | -0.223
Stat92E | DRSC16870 | -0.387
CG12159 | DRSC06114 | 1.22
CG42249 | DRSC19383 | -0.368
CG42249 | DRSC19826 | 0.909
CG12744 | DRSC06164 | 0.563
